According to PMC8689565:
Results are given in words; binding and its absence hold for the method and conditions named. In cells and extracts the contact can be indirect. Some entries that bind do so weakly or less than the wild type.

Sequences of proteins named here, by UniProt entry; tags and fusion partners are left off.
UniProt Q86WV6: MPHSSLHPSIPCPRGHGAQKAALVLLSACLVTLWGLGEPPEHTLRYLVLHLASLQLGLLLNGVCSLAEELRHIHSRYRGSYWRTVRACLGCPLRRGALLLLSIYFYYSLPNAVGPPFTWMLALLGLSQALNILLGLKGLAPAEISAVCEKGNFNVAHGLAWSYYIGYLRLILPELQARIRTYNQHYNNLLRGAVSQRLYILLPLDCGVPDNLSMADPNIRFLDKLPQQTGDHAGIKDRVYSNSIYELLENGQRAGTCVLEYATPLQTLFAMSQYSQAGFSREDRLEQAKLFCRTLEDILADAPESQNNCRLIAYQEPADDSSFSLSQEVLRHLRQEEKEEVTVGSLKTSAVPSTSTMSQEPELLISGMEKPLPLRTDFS

Assays:
[1] = biological target: epidermal growth factor receptor (EGFR) (human (endogenous in HT1080 and HeLa)) (UniProt P00533); experiment: co-IP; endogenous proteins; HT1080 cells without cGAMP stimulation; IP and Western blot as for the stimulated cells
[2] = biological target: epidermal growth factor receptor (EGFR) (human (endogenous in HT1080 and HeLa)) (UniProt P00533); experiment: co-IP; endogenous proteins; HT1080 cells treated with cGAMP for 1 h, with or without 1 h R406 pretreatment; IP with antibody to EGFR, Syk or STING, Western blot; lysis in 20 mM HEPES pH 7.5, 150 mM NaCl, 1% Triton X-100, 0.2% NP-40
[3] = biological target: STING (human (endogenous in HT1080)) (UniProt Q86WV6); experiment: as above

| Substance | binding [1] | binding [2] | binding [3] |
| --- | --- | --- | --- |
| STING (from UniProt Q86WV6 1-379) | no binding (condition: cells without cGAMP stimulation) | binds | – |
| epidermal growth factor receptor (EGFR) (from UniProt P00533 25-1210) | – | – | binds |
